PubChem BioAssay AID504744 | Drosophila RNAi Screening Center – 2011

- Purpose: 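Find genes whose loss alters insulin-driven dAkt phosphorylation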 (primary screen)
- Cell system: Drosophila Kc167 cells
- Knock-down reagent: long dsRNA against Drosophila genes, 250 ng dsRNA per well of a 384-well plate
- Duration: 3 days of knock-down, then overnight serum-free starvation before stimulation
- Treatment: bovine insulin at 387 nM for 10 minutes after 12 h without serum
- Measurement: 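In-cell antibody fluorescence for phospho-dAkt in each well over DNA-dye signal, with log2 residuals expressed as z-scores adjusted for cell count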
- Active means: 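Under insulin, a gene counts as a hit if the average z-score of two replicates lies above 2.5 or below -2.5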
The screen tested about 23,000 reagents; below is a random part of those that have a named target and a result. In the full data, 98 (0.43%) are marked active. 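Only hit calls are given; the phospho-dAkt signals, z-scores and hit direction were not deposited.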 Names joined by + are all predicted targets of the reagent.

For Ste:CG33238 + Ste:CG33241 + Ste:CG33236 + 11 more [DRSC19004], how do the results read?
Outcome: inactive

With Ste:CG33238 + Ste:CG33241 + Ste:CG33236 + 11 more [DRSC21260], how do the results read?
Outcome: inactive

What did the screen give for Nup43 (GeneID 42209) [DRSC16279]?
Outcome: inactive

With CG11583 (GeneID 326206) [DRSC08202], what does the deposit list?
Outcome: inactive

For Wdr33 (GeneID 40698) [DRSC12162], what was measured?
Outcome: inactive

What is on record for kl-3 (retired record) (GeneID 5740653) [DRSC20730]?
Outcome: inactive

With kl-3 (retired record) (GeneID 5740653) [DRSC20891], what does the deposit list?
Outcome: inactive

How did the screen score kl-3 (retired record) (GeneID 5740653) [DRSC20934]?
Outcome: inactive

How did the screen score Trf (GeneID 34102) [DRSC03462]?
Outcome: inactive

Which result is listed for CG12643 (GeneID 50416) [DRSC17849]?
Outcome: inactive

Which result is listed for stc (GeneID 34888) [DRSC03620]?
Outcome: inactive

What is on record for cwo (GeneID 44669) [DRSC17072]?
Outcome: inactive

What is on record for CG33290 (GeneID 2768993) [DRSC11493]?
Outcome: inactive

For beat-Ia (GeneID 34947) [DRSC03489], what was measured?
Outcome: inactive

Which result is listed for CG3358 (GeneID 35604) [DRSC04992]?
Outcome: inactive

What did the screen give for Usp16-45 (GeneID 31458) [DRSC18352]?
Outcome: inactive

With CG6867 (GeneID 32782) [DRSC20013], what was measured?
Outcome: inactive

With mat (GeneID 38107) [DRSC08376], how do the results read?
Outcome: inactive

Which result is listed for mat (GeneID 38107) [DRSC22841]?
Outcome: inactive

What is on record for Send1 (GeneID 33407) [DRSC00482]?
Outcome: inactive

With Mtap (GeneID 36955) [DRSC06890], what was measured?
Outcome: inactive

What is on record for CG43901 (GeneID 32024) [DRSC19397]?
Outcome: inactive

With CG43901 (GeneID 32024) [DRSC19652], what does the deposit list?
Outcome: inactive

With Nop17l (GeneID 35730) [DRSC06556], what does the deposit list?
Outcome: inactive

For CG32132 (retired record) (GeneID 317877) [DRSC22437], how do the results read?
Outcome: inactive

With ERp60 (GeneID 36270) [DRSC07309], what does the deposit list?
Outcome: inactive

What did the screen give for CG17883 (GeneID 3355139) [DRSC07838]?
Outcome: inactive

With CG11723 (GeneID 33388) [DRSC00324], what was measured?
Outcome: inactive

For Samuel (GeneID 34530) [DRSC02156], what does the deposit list?
Outcome: inactive

What did the screen give for Samuel (GeneID 34530) [DRSC02401]?
Outcome: inactive

With Samuel (GeneID 34530) [DRSC02402], what was measured?
Outcome: inactive

What did the screen give for Samuel (GeneID 34530) [DRSC21731]?
Outcome: inactive

Which result is listed for Snx6 (GeneID 34126) [DRSC03081]?
Outcome: inactive

With Inx7 (GeneID 33027) [DRSC18784], what does the deposit list?
Outcome: inactive

With GAA1 (GeneID 31517) [DRSC18267], what was measured?
Outcome: inactive

How did the screen score BNIP3 (GeneID 40278) [DRSC11761]?
Outcome: inactive

For jbug (GeneID 43997) [DRSC03952], how do the results read?
Outcome: inactive

For jbug (GeneID 43997) [DRSC04114], what does the deposit list?
Outcome: inactive

What did the screen give for jbug (GeneID 43997) [DRSC04167]?
Outcome: inactive

What did the screen give for jbug (GeneID 43997) [DRSC04388]?
Outcome: inactive

Which result is listed for CG13615 (GeneID 42916) [DRSC14618]?
Outcome: inactive

For Taz (GeneID 36405) [DRSC07704], what was measured?
Outcome: inactive

With Taz (GeneID 36405) [DRSC22625], what was measured?
Outcome: inactive

With CG31139 (GeneID 42698) [DRSC21393], how do the results read?
Outcome: inactive

With ng3 (GeneID 31299) [DRSC18804], how do the results read?
Outcome: inactive

What did the screen give for CG3698 (GeneID 40298) [DRSC11749]?
Outcome: inactive

With Eps-15 (GeneID 37961) [DRSC04288], how do the results read?
Outcome: inactive

Which result is listed for CG6356 (GeneID 42893) [DRSC16026]?
Outcome: inactive

What did the screen give for CR42546 (GeneID 8674079) [DRSC03711]?
Outcome: inactive

For Cortactin (GeneID 42491) [DRSC16612], what does the deposit list?
Outcome: inactive

With Ugt35C1 (GeneID 53507) [DRSC16080], how do the results read?
Outcome: inactive

How did the screen score CG1827 (GeneID 35989) [DRSC06719]?
Outcome: inactive

How did the screen score Phm (GeneID 37823) [DRSC04639]?
Outcome: inactive

What is on record for Nca (GeneID 40186) [DRSC11233]?
Outcome: inactive

With wbl (GeneID 37206) [DRSC07718], what does the deposit list?
Outcome: inactive

What is on record for Dll (GeneID 37973) [DRSC04610]?
Outcome: inactive

What did the screen give for SLIRP1 + anox [DRSC20542]?
Outcome: inactive
